This note sets out measurements from patent US9962341B2, “Active pharmaceutical ingredient (API) comprising cannabinoids for use in the treatment of cancer” (GW Pharma Limited, priority 2014, dated 2018).

For this data set, the system named is NCI-H460. Nature of the data set: Cell viability (CellTiter-Blue, 72 h), NCI-H460 lung cancer cells. In kind it is cell-based. The conditions noted are these: NCI-H460, 1% FBS. The method, then:
The following cell lines were tested in this example: Lung Cancer (A549, NCI-H460); Pancreatic cancer (PANC1, Mia-Pa-Ca-2); Melanoma (WM115, A375); Ovarian cancer (OVCAR3, SKOV3); Gastric cancer (MKN45, HGC-27); Renal cancer (ACHN) and Bladder Cancer (RT112).
Each tumour cell line was maintained in vitro in RPMI 1640+10% heat inactivated FBS and 2 mM L-glutamine (growth media) at 37° C. in 5% CO2 and humidified conditions. The cells were harvested, washed, re-suspended into growth medium and counted. The cells were re-suspended into assay media (RPMI 1640+5% heat inactivated FBS+ and 2 mM L-glutamine) at 4×10^4 cells/ml (dependent upon cell type) and plated into the middle 240 wells of 384 well tissue culture plates (Corning CellBind, black-wall plates) 25 μl/well aliquots; 50 μl of growth media was aliquoted into the outer wells. There were 3 plates for each cell line.
The plates were incubated overnight at 37° C., in 5% humidified CO2.
The phytocannabinoid test compounds were prepared in 100% DMSO vehicle at a stock concentration of 20 and 40 mM.
Starting with the 20 mM stock in DMSO, this was serially diluted (2 fold) in DMSO in a 96-well plate, to 20 (no dilution), 10, 5, 2.5, 1.25, 0.625, 0.315, 0.157 and […]. Following this, 10 ul of each compound dilution was diluted into 990 ul of 1% (v/v) FBS media in a deep well block making the final concentrations of 200, 100, 50, 25, 12.5, 6.25, 3.125, 1.56 and 0.79 μM (2× final assay concentrations and 1% DMSO).
An equal volume of each cannabinoid in the combination (stock concentration 40 mM) was mixed together to make a stock of 20 mM of each cannabinoid in DMSO. This was serially diluted (2 fold) in DMSO in a 96-well plate, to 20 (no dilution), 10, 5, 2.5, 1.25, 0.625, 0.315, 0.157 and […]. Following this, 10 ul of each combination dilution was diluted into 990 ul of 1% (v/v) FBS media in a deep well block making the final concentrations of 200, 100, 50, 25, 12.5, 6.25, 3.125, 1.56 and 0.79 μM (2× final assay concentrations and 1% DMSO).
Taxotere SOC was prepared in 100% DMSO to give a stock concentration of 10 mM. This was diluted in DMSO from the stock solution to 200 μM, then serially diluted (3-fold) in DMSO to 200 (no dilution), 66.66, 22.22, 7.41, 2.47, 0.82, 0.27, 0.09, 0.03 μM. 10 ul of each of the taxotere dilutions was diluted in 990 ul of 1% (v/v) FBS media making the final concentrations of 2, 0.67, 0.22, 0.074, 0.0247, 0.0082, 0.0027 0.0009, 0.0003 μM (2× final assay concentrations and 1% DMSO).
The plates were incubated for 72 h at 37° C. in 5% humidified CO2. To develop the plates, at 72 h, 10 μl of CellTiter-Blue™ reagent was added to each test/blank well.
The plates were incubated at 37° C., 5% humidified CO2. Fluorescence was measured using a Flex II Station plate reader (570 nm excitation wavelength, 600 nm emission wavelength, 590 nm cut-off) after 3 h.
The phytocannabinoid compounds CBD, CBGA, CBG, CBDA, THCV and THC were tested on a panel of lung (A549, NCI-H460), pancreatic (PANC1, Mia-Pa-Ca-2), melanoma (WM115, A375), ovarian (OVCAR3, SKOV3), gastric (MKN45, HGC-27), renal (ACHN) and bladder (RT112) cancer cell lines according to the protocol for 72 h in media containing 1% FBS.
The IC50 values for each phytocannabinoid and combination of CBD with the other phytocannabinoids was calculated for each cell line. The raw data values expressed in relative fluorescent units were normalised to the vehicle for each individual plate and any reduction in fluorescence indicated a decrease in viability.
This calculation was as described in Example 1 above.
On the technique in general: Alamar Blue is a resazurin reagent that responds to reducing activity.
For the compound `C=C(C)[C@@H]1CCC(C)=C[C@H]1c1c(O)cc(CCCCC)cc1O` [CBD, Cannabidiol], the “m (shape parameter of dose effect curve)” value came out at 6.24.

For the compound `C=C(C)[C@@H]1CCC(C)=C[C@H]1c1c(O)cc(CCCCC)c(C(=O)O)c1O` [CBDA, Cannabidiolic acid], the “m (shape parameter of dose effect curve)” value came to 3.32.

On to `CCCCCc1cc(O)c(C/C=C(\C)CCC=C(C)C)c(O)c1` [CBG, Cannabigerol], for which the “m (shape parameter of dose effect curve)” value was found to be 13.62.

Take `CCCCCc1cc(O)c(C/C=C(\C)CCC=C(C)C)c(O)c1C(=O)O` [CBGA, Cannabigerolic acid]: the “m (shape parameter of dose effect curve)” value turned out to be 2.68.

Turning to `CCCc1cc(O)c2c(c1)OC(C)(C)[C@@H]1CCC(C)=C[C@@H]21` [THCV, Tetrahydrocannabivarin], the “m (shape parameter of dose effect curve)” value was 4.47.
